In the supplement of paper PMC10849652:
The other results are listed elsewhere or left out. Residues, ends and D or L forms follow the SMILES beside them. *: point of attachment. Cbz = O=C(OCc1ccccc1)*

By UniProt entry, the sequences of proteins in these tests, tags left out. Where a name states a change or a piece, a line headed by the entry shows the natural chain unless it says otherwise.
UniProt Q96SU4: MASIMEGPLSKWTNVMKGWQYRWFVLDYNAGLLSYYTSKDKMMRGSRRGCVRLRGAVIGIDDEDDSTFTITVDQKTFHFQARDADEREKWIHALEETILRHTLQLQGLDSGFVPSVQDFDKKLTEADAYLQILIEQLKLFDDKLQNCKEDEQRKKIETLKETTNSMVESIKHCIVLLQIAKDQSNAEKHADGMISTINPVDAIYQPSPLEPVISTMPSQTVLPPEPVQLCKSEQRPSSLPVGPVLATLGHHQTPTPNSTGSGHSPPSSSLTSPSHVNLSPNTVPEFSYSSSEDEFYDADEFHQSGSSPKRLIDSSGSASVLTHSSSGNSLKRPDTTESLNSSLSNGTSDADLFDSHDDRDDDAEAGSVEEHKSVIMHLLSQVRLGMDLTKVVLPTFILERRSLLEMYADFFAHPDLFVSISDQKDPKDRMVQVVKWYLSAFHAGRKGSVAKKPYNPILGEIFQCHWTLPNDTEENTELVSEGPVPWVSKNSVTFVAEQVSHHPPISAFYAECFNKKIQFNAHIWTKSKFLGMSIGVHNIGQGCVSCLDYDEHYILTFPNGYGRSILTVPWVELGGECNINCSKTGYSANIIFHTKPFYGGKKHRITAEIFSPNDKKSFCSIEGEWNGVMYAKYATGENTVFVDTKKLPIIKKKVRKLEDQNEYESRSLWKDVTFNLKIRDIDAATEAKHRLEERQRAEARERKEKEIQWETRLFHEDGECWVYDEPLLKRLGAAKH
UniProt P11940, whole entry, looked up: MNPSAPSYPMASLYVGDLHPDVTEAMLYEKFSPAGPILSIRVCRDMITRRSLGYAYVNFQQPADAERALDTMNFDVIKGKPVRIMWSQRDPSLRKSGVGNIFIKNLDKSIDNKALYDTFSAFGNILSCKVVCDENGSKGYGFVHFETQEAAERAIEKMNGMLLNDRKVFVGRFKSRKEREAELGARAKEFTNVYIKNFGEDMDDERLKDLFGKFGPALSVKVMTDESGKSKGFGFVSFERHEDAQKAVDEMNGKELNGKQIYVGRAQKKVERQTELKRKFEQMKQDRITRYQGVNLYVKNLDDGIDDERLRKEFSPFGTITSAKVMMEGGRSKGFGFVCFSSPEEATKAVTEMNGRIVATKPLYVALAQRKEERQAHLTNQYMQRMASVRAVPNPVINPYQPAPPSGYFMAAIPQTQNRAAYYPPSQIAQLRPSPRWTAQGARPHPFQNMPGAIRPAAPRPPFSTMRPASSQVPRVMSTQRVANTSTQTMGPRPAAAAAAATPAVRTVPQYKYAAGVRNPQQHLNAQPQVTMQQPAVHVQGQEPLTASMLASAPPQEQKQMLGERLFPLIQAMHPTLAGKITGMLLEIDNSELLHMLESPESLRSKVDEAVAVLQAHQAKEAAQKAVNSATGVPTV
UniProt Q9Y530: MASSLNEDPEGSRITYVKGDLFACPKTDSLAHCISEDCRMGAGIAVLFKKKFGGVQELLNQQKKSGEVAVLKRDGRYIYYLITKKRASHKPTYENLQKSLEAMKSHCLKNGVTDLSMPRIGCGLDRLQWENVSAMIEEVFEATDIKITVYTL
UniProt Q01968: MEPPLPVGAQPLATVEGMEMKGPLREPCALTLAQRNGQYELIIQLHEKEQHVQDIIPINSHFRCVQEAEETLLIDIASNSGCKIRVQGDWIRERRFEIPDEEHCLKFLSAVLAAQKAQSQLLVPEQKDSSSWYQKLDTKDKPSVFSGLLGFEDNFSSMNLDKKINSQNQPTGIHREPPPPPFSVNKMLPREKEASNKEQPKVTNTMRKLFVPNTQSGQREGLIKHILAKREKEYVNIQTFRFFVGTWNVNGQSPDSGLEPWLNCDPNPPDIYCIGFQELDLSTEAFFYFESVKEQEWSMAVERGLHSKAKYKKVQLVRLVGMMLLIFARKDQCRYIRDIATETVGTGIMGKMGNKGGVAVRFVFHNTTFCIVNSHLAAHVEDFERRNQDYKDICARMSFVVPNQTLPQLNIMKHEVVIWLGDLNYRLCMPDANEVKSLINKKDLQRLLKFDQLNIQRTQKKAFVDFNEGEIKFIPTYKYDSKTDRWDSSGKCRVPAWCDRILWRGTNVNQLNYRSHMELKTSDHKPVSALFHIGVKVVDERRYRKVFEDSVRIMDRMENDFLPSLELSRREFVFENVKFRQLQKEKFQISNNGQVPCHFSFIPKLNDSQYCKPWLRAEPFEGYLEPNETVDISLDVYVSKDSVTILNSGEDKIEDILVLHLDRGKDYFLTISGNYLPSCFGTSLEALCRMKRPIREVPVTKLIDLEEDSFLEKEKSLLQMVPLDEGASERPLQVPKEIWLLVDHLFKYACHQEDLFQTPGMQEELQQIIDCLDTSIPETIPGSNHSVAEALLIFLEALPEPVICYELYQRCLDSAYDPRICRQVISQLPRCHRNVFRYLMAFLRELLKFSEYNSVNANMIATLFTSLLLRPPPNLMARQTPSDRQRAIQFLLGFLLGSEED
UniProt A8MXV4: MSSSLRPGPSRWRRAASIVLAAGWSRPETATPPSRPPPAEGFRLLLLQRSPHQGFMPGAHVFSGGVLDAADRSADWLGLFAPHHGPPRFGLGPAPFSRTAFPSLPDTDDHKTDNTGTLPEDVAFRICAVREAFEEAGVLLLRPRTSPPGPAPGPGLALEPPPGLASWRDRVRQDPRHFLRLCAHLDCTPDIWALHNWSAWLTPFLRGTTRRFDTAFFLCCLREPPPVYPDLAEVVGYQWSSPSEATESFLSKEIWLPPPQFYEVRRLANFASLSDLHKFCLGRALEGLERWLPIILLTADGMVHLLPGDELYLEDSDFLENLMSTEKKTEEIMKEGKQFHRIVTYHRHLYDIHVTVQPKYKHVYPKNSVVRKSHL
UniProt P35658: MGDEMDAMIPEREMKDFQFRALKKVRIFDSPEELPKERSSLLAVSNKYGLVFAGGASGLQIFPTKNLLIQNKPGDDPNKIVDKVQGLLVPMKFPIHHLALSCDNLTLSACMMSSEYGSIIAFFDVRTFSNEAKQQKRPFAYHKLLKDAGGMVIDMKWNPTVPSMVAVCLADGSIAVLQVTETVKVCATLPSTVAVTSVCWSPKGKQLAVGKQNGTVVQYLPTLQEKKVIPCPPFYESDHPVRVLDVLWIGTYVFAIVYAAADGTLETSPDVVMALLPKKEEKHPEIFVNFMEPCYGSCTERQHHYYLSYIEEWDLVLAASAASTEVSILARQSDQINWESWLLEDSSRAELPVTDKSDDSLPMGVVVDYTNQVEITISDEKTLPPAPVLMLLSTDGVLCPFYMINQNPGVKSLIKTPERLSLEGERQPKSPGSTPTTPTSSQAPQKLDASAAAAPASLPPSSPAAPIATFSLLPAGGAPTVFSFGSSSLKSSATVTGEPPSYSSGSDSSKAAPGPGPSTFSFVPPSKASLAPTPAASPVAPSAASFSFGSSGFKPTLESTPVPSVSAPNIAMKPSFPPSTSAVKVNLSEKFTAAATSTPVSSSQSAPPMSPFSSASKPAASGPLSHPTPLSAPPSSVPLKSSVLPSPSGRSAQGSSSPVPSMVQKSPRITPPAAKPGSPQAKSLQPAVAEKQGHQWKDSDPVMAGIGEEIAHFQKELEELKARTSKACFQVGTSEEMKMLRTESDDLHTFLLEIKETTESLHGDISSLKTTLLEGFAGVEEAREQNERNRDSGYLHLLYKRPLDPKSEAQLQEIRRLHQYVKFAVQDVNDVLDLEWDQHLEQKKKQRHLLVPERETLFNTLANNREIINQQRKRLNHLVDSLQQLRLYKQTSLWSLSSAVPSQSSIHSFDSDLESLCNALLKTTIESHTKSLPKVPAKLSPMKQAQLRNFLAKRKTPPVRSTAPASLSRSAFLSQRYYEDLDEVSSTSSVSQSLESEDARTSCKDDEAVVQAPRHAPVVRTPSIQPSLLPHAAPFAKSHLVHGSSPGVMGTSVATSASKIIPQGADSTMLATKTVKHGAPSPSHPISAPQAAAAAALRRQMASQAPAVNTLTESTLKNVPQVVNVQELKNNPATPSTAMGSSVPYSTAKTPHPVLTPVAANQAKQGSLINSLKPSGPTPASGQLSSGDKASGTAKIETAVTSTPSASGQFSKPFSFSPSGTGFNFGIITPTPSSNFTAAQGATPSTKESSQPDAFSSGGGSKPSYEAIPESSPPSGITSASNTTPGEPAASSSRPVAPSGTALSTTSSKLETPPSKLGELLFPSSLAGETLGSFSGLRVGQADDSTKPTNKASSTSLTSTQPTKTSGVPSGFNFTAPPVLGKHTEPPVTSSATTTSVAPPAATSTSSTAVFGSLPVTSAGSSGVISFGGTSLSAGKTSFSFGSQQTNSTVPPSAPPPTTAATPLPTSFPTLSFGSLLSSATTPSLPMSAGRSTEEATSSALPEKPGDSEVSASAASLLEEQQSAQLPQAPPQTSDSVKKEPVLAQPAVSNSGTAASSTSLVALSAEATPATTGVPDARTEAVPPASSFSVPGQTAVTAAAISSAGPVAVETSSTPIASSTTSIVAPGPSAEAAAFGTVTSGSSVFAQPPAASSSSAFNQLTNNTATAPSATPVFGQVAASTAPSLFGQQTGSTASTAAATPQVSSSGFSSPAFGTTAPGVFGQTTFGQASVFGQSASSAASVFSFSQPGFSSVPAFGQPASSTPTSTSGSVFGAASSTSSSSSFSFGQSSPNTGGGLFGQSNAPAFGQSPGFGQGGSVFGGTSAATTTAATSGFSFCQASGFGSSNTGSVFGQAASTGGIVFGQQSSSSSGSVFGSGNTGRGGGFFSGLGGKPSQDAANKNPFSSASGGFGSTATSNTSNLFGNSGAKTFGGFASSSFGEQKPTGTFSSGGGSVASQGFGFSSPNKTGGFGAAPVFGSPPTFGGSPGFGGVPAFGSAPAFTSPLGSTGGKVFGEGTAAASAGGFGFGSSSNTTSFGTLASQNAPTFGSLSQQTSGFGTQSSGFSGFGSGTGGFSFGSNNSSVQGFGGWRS
UniProt Q9UQ80: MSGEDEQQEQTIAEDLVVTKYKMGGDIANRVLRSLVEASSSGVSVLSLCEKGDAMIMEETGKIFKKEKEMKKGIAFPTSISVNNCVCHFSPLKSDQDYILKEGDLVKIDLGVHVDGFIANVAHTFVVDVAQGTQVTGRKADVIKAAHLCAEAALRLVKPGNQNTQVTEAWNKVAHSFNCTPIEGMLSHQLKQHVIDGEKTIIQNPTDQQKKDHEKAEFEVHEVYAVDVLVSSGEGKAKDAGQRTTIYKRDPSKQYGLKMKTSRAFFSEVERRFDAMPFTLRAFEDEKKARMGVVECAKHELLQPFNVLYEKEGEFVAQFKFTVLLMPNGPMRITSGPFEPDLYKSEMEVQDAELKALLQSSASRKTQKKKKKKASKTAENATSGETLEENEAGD
UniProt Q96CV9, whole entry, looked up: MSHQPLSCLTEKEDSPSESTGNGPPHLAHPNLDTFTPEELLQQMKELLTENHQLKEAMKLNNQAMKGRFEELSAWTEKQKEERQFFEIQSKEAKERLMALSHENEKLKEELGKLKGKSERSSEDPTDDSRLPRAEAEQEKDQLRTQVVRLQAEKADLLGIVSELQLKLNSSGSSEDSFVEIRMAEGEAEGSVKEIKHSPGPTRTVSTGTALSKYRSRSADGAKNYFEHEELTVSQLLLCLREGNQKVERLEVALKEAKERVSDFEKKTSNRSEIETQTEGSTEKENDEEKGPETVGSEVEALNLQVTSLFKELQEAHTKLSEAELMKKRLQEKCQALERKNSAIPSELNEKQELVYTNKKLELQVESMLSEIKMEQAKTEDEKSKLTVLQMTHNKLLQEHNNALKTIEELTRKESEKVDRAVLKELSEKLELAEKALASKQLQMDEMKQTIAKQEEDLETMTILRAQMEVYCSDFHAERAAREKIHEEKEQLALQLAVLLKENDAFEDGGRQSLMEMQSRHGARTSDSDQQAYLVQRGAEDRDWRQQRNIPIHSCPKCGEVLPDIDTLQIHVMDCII
UniProt Q9BVL2: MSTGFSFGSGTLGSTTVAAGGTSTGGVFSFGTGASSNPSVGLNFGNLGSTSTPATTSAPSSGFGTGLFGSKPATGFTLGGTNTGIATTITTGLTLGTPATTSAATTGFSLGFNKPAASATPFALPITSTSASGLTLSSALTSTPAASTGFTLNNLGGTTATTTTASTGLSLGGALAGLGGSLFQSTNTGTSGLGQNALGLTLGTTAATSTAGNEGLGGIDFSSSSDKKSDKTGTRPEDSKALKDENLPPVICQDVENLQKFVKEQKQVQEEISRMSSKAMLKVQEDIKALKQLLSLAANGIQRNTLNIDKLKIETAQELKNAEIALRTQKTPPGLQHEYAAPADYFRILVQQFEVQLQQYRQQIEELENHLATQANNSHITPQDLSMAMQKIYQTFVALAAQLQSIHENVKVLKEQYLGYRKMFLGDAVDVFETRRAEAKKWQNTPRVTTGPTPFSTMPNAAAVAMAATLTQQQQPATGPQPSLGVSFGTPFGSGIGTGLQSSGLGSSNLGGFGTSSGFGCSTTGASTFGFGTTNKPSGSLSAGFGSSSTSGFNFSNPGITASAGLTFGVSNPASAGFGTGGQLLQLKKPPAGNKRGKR

What was measured:
Assay in all cases: log2 fold change, soluble protein after heating vs DMSO (PISA); higher = thermal stabilisation; K562 cells, 10 uM, 30 min; active = over 0.2 and 3.5 SD of the protein, either way, in both replicates (recomputed)
IRAK-1-4 Inhibitor I = compound: C1COCCN1CCN2C3=CC=CC=C3N=C2NC(=O)C4=CC(=CC=C4)[N+](=O)[O-] [IRAK-1-4 Inhibitor I]
Summary of the method: (§1)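 Thermal stability values are relative to control samples and come from duplicates. They are expressed as log2 fold changes. For measurement, K562 cells (2×10^6 cells/mL) received 10 μM compound for 30 min, and aliquots were heated for 3 min over 48°C-58°C, pooled, and extracted at 4°C in PBS with 0.5% NP-40. Soluble protein, the supernatant after 21,000xg for 90 min, was quantified by TMTpro 16plex LC-MS/MS with equalised channel sums.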

ibrutinib = compound: C=CC(=O)N1CCC[C@@H](n2nc(-c3ccc(Oc4ccccc4)cc3)c3c(N)ncnc32)C1 [ibrutinib]
Summary of the method: as §1

[1] = compound: CC(=O)c1cnc2ccc(-c3cc(Cl)c(O)c(Cl)c3)nc2c1N[C@H]1CC[C@H](CN(C)C)CC1
Summary of the method: as §1

ralimetinib = compound: CC(C)(C)Cn1c(N)nc2ccc(-c3[nH]c(C(C)(C)C)nc3-c3ccc(F)cc3)nc21 [ralimetinib]
Summary of the method: as §1

[2] = compound: CC(C)(O)CC(=O)NCCn1ccc2ncnc(Nc3ccc(Oc4cccc(C(F)(F)F)c4)c(Cl)c3)c21
Summary of the method: as §1

[3] = compound: CC(C)C1=C2N=C(C=C(N2N=C1)NCC3=CC=CC=C3)NCCCCCCN
Summary of the method: as §1

[4] = compound: CC(C)C[C@@H](C=O)NC(=O)[C@H](CC(C)C)NC(=O)[C@H](CC(C)C)NC(=O)OCc1ccccc1
Summary of the method: as §1

pinometostat = compound: CC(C)N(C[C@H]1O[C@@H](n2cnc3c(N)ncnc32)[C@H](O)[C@@H]1O)[C@H]1C[C@@H](CCc2nc3cc(C(C)(C)C)ccc3[nH]2)C1 [pinometostat]
Summary of the method: as §1

[5] = compound: CC1=C(C(CC(=O)N1)C2=CC=C(C=C2)C(F)(F)F)C(=O)NC3=C(C=C4C(=C3)C=NN4)F
Summary of the method: as §1

[6] = compound: CC1=C(C2=C(C=C1)C(=O)C3=CC=CC=C3N2CCCN)C
Summary of the method: as §1

[7] = compound: CC1=C(C=C(C=C1)NC(=O)C2=CC(=CC=C2)C(C)(C)C#N)NC3=CC4=C(C=C3)N=CN(C4=O)C
Summary of the method: as §1

[8] = compound: CC1=C(C=C(C=C1)NC(=O)C2=CC(=CC=C2)N(C)C)NC(=O)C3=CC=C(C=C3)O
Summary of the method: as §1

[9] = compound: CC1=CC=C(C=C1)SC2=C3C=C(SC3=CN=C2)C(=O)N
Summary of the method: as §1

[10] = compound: CC1=NC(=CC=C1)C2=C(N=C(N2)C(C)(C)C)C3=CC4=NC=CN=C4C=C3
Summary of the method: as §1

Nexturastat A = compound: CCCCN(Cc1ccc(C(=O)NO)cc1)C(=O)Nc1ccccc1 [Nexturastat A]
Summary of the method: as §1

vemurafenib = compound: CCCS(=O)(=O)Nc1ccc(F)c(C(=O)c2c[nH]c3ncc(-c4ccc(Cl)cc4)cc23)c1F [vemurafenib]
Summary of the method: as §1

[11] = compound: CCCS(=O)(=O)Nc1ccc(F)c(C(=O)c2c[nH]c3ncc(Cl)cc23)c1F
Summary of the method: as §1

[12] = compound: CCCc1cc(C)[nH]c(=O)c1CNC(=O)c1cc(-c2ccnc(N3CCN(C)CC3)c2)cc2c1cnn2C(C)C
Summary of the method: as §1

givinostat = compound: CCN(CC)Cc1ccc2cc(COC(=O)Nc3ccc(C(=O)NO)cc3)ccc2c1 [givinostat]
Summary of the method: as §1

barasertib = compound: CCN(CCCOc1ccc2c(Nc3cc(CC(=O)Nc4cccc(F)c4)[nH]n3)ncnc2c1)CCOP(=O)(O)O [barasertib]
Summary of the method: as §1

Measured: log2 fold change

OSBPL9 (UniProt Q96SU4)
inactive: IRAK-1-4 Inhibitor I -0.045 | ibrutinib 0.002 | [1] -0.08 | ralimetinib 0.107 | [2] -0.012 | [3] -0.21 | [4] 0.191 | pinometostat 0.357 | [5] 0.047 | [6] -0.018 | [7] 0.025 | [8] 0.302 | [9] 0.063 | [10] -0.159 | Nexturastat A 0.224 | vemurafenib 0.046 | [11] 0.077 | [12] 0.081 | givinostat 0.026 | barasertib 0.01

OIP5 (UniProt O43482)
inactive: IRAK-1-4 Inhibitor I 0.007 | ibrutinib 0.017 | [1] -0.104 | ralimetinib -0.098 | [2] 0.101 | [3] 0.024 | [4] 0.109 | pinometostat -0.044 | [5] 0.024 | [6] 0.006 | [7] -0.016 | [8] -0.008 | [9] 0.013 | [10] 0.087 | Nexturastat A 0.041 | vemurafenib -0.05 | [11] 0.029 | [12] -0.01 | givinostat -0.035 | barasertib -0.03

OGT (UniProt O15294)
inactive: IRAK-1-4 Inhibitor I -0.016 | ibrutinib -0.005 | [1] -0.081 | ralimetinib 0.013 | [2] -0.04 | [3] 0.012 | [4] 0.028 | pinometostat -0.016 | [5] -0.064 | [6] 0.148 | [7] 0.034 | [8] -0.028 | [9] -0.026 | [10] 0.024 | Nexturastat A 0.035 | vemurafenib 0.064 | [11] 0.043 | [12] 0.023 | givinostat 0.037 | barasertib 0.007

PABPC1 (UniProt P11940)
inactive: IRAK-1-4 Inhibitor I -0.057 | ibrutinib 0.055 | [1] 0 | ralimetinib 0.036 | [2] 0.06 | [3] 0.015 | [4] 0.015 | pinometostat 0.025 | [5] 0.021 | [6] -0.161 | [7] 0.043 | [8] 0.048 | [9] -0.053 | [10] 0.046 | Nexturastat A 0.08 | vemurafenib -0.027 | [11] -0.031 | [12] 0.026 | givinostat -0.045 | barasertib -0.051

Two records drawn at random from those above:
OSBPL9 (UniProt Q96SU4)
inactive: IRAK-1-4 Inhibitor I -0.045 | ibrutinib 0.002 | [1] -0.08 | ralimetinib 0.107 | [2] -0.012 | [3] -0.21 | [4] 0.191 | pinometostat 0.357 | [5] 0.047 | [6] -0.018 | [7] 0.025 | [8] 0.302 | [9] 0.063 | [10] -0.159 | Nexturastat A 0.224 | vemurafenib 0.046 | [11] 0.077 | [12] 0.081 | givinostat 0.026 | barasertib 0.01

PABPC1 (UniProt P11940)
inactive: IRAK-1-4 Inhibitor I -0.057 | ibrutinib 0.055 | [1] 0 | ralimetinib 0.036 | [2] 0.06 | [3] 0.015 | [4] 0.015 | pinometostat 0.025 | [5] 0.021 | [6] -0.161 | [7] 0.043 | [8] 0.048 | [9] -0.053 | [10] 0.046 | Nexturastat A 0.08 | vemurafenib -0.027 | [11] -0.031 | [12] 0.026 | givinostat -0.045 | barasertib -0.051

Additional entries follow.

OARD1 (UniProt Q9Y530)
inactive: IRAK-1-4 Inhibitor I -0.192 | ibrutinib -0.048 | [1] -0.062 | ralimetinib 0.127 | [2] -0.104 | [3] -0.038 | [4] 0.042 | pinometostat -0.066 | [5] 0.016 | [6] 0.08 | [7] 0.044 | [8] -0.044 | [9] 0.002 | [10] 0.137 | Nexturastat A 0.058 | vemurafenib 0.077 | [11] 0.068 | [12] 0.232 | givinostat 0.076 | barasertib 0.144

OCRL (UniProt Q01968)
inactive: IRAK-1-4 Inhibitor I -0.095 | ibrutinib -0.068 | [1] -0.045 | ralimetinib 0.069 | [2] 0.034 | [3] 0.056 | [4] -0.007 | pinometostat 0.024 | [5] 0.022 | [6] 0.026 | [7] 0.079 | [8] -0.056 | [9] -0.031 | [10] 0.031 | Nexturastat A 0.012 | vemurafenib -0.085 | [11] 0.016 | [12] 0.028 | givinostat 0.16 | barasertib 0.062

NUDT4 (UniProt Q9NZJ9)
inactive: IRAK-1-4 Inhibitor I -0.029 | ibrutinib 0.032 | [1] 0.019 | ralimetinib -0.005 | [2] -0.057 | [3] -0.178 | [4] 0.046 | pinometostat -0.005 | [5] -0.017 | [6] -0.095 | [7] 0.047 | [8] -0.048 | [9] -0.018 | [10] 0.018 | Nexturastat A -0.01 | vemurafenib 0.017 | [11] 0.034 | [12] 0.004 | givinostat 0.064 | barasertib 0.042

NUDT19 (UniProt A8MXV4)
inactive: IRAK-1-4 Inhibitor I 0.011 | ibrutinib -0.019 | [1] 0.048 | ralimetinib -0.047 | [2] 0 | [3] 0.061 | [4] -0.022 | pinometostat -0.074 | [5] -0.025 | [6] -0.028 | [7] -0.014 | [8] 0.02 | [9] 0.008 | [10] 0.003 | Nexturastat A -0.146 | vemurafenib 0.036 | [11] 0.033 | [12] 0.013 | givinostat 0.011 | barasertib 0.007

NUP214 isoform 5 (UniProt P35658)
inactive: IRAK-1-4 Inhibitor I -0.044 | ibrutinib -0.05 | [1] -0.023 | ralimetinib 0.147 | [2] 0 | [3] -0.159 | [4] 0.131 | pinometostat 0.262 | [5] -0.029 | [6] 0.024 | [7] -0.064 | [8] 0.035 | [9] -0.049 | [10] -0.027 | Nexturastat A 0.242 | vemurafenib 0.042 | [11] 0.024 | [12] 0.05 | givinostat 0.096 | barasertib 0.06

PA2G4 (UniProt Q9UQ80)
inactive: IRAK-1-4 Inhibitor I -0.081 | ibrutinib -0.025 | [1] 0.023 | ralimetinib 0.01 | [2] -0.033 | [3] -0.029 | [4] 0.005 | pinometostat -0.01 | [5] -0.047 | [6] -0.073 | [7] 0.075 | [8] -0.043 | [9] 0.007 | [10] 0.064 | Nexturastat A -0.023 | vemurafenib 0.023 | [11] 0.038 | [12] 0.004 | givinostat -0.022 | barasertib 0.009

OPTN (UniProt Q96CV9)
inactive: IRAK-1-4 Inhibitor I -0.046 | ibrutinib 0.013 | [1] -0.016 | ralimetinib 0.021 | [2] 0.012 | [3] -0.195 | [4] -0.081 | pinometostat 0.114 | [5] 0.002 | [6] -0.078 | [7] -0.081 | [8] 0.052 | [9] -0.103 | [10] -0.031 | Nexturastat A -0.189 | vemurafenib 0.083 | [11] -0.08 | [12] -0.043 | givinostat 0.08 | barasertib -0.056

NUP58 (UniProt Q9BVL2)
inactive: IRAK-1-4 Inhibitor I -0.008 | ibrutinib -0.076 | [1] -0.034 | ralimetinib -0.091 | [2] 0.017 | [3] 0.08 | [4] 0.013 | pinometostat -0.059 | [5] 0.011 | [6] 0.035 | [7] -0.055 | [8] 0.042 | [9] 0 | [10] 0.011 | Nexturastat A -0.007 | vemurafenib 0.003 | [11] 0.009 | [12] -0.029 | givinostat -0.002 | barasertib 0.023

NUP35 (UniProt Q8NFH5)
inactive: IRAK-1-4 Inhibitor I 0.048 | ibrutinib -0.053 | [1] -0.015 | ralimetinib -0.036 | [2] -0.119 | [3] -0.004 | [4] -0.015 | pinometostat -0.028 | [5] -0.088 | [6] -0.007 | [7] -0.035 | [8] -0.009 | [9] 0.06 | [10] 0.051 | Nexturastat A -0.061 | vemurafenib -0.008 | [11] 0.083 | [12] 0.011 | givinostat 0.046 | barasertib 0.047

NUFIP2 (UniProt Q7Z417)
inactive: IRAK-1-4 Inhibitor I -0.028 | ibrutinib 0.022 | [1] 0.037 | ralimetinib 0.096 | [2] 0.049 | [3] -0.025 | [4] 0.003 | pinometostat 0.116 | [5] 0.003 | [6] 0.017 | [7] 0.019 | [8] 0.026 | [9] -0.052 | [10] -0.007 | Nexturastat A 0.163 | vemurafenib -0.022 | [11] -0.023 | [12] 0.104 | givinostat 0.035 | barasertib -0.043

NT5C3A (UniProt Q9H0P0)
inactive: IRAK-1-4 Inhibitor I -0.07 | ibrutinib -0.03 | [1] -0.028 | ralimetinib 0.025 | [2] 0.025 | [3] -0.244 | [4] 0.021 | pinometostat 0.169 | [5] -0.041 | [6] -0.014 | [7] 0.019 | [8] -0.047 | [9] 0.023 | [10] -0.073 | Nexturastat A 0.183 | vemurafenib 0.029 | [11] 0.069 | [12] 0.058 | givinostat 0.102 | barasertib 0.085
